# Source: the supplement of paper PMC3334620
# The full ranking holds about 33,000 sequences; the median of “E-score (-0.5 to 0.5)” is about -0.016, and the highest 2% start at about 0.3. The list shows a part of the results.
# Biological target: T1, Yer184c (UniProt P39961)
# T1 sequence: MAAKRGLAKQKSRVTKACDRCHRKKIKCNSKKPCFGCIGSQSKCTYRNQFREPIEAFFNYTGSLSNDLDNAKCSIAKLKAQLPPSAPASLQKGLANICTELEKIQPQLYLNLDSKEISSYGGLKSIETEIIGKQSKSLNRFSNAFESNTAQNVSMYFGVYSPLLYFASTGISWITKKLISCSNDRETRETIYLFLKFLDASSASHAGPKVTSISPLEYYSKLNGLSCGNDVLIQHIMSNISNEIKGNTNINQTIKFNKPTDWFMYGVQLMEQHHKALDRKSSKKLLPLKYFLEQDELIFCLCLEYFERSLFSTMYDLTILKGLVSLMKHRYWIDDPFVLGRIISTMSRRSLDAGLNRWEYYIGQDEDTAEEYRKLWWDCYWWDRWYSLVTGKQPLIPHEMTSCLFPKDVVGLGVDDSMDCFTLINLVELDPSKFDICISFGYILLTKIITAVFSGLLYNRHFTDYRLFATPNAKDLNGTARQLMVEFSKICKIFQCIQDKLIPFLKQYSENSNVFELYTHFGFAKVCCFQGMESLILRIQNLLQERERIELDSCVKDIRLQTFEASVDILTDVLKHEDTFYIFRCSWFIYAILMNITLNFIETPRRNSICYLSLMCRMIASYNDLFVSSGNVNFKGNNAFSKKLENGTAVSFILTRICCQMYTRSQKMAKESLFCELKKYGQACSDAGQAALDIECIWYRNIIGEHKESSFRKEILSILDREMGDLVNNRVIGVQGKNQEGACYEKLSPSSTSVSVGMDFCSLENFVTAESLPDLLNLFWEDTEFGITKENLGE
# Experiment: PBM E-score (8-mer binding enrichment) (E-score (-0.5 to 0.5)); higher = stronger / more preferred TF binding
# Settings: protein concentration: 100 nM; construct: GST-full length
# In short: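 Universal all-10-mer Agilent arrays, double-stranded by primer extension on fresh or once-stripped slides, were probed with about 100-200 nM GST-tagged yeast transcription factors made by PURExpress. Fluorescent anti-GST detected bound protein, and masliner normalised the scans. E-scores from the Universal PBM Analysis Suite were given to each ungapped eight-base word pooled with its reverse complement.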
row,Sequence,PBM E-score
1,CGATACTA,0.219
2,ATGATTGC,0.0363
3,AGCTTCGG,0.233
4,CACTATCG,0.00124
5,TGATGGCA,-0.287
6,GAATCGGC,0.254
7,CAAAGACC,-0.00103
8,GATGGACA,0.183
9,CACCCATA,-0.342
10,GTTCAAAA,0.193
11,CCAGGTTA,-0.113
12,ATAACTAG,-0.076
13,GACGCACA,0.0276
14,ACCCTGAG,-0.238
15,CTATGATC,0.0909
16,ACACCTCA,-0.211
17,ACCGGCTC,0.225
18,ACTCTCGG,0.344
19,TCCGAAAA,0.264
20,ACGTGACC,-0.184
21,GTGAGAGA,-0.0331
22,GTTCCCCA,-0.183
23,AACGCGTT,0.00161
24,TAGGAACA,-0.00939
25,GATGTGAA,0.0854

row,Sequence,PBM E-score
1,GATATACC,0.167
2,AAACTTCC,0.0681
3,GAACTTCC,-0.00938
4,AGATATCA,0.0377
5,TGGTATAA,0.0776
6,CATAGCGC,0.0606
7,CATAACGC,-0.0567
8,AAACGAAA,0.189
9,TAAGCTCA,-0.166
10,AAGCTCAG,-0.0536
11,CGTTTGAG,0.0629
12,CCACACGA,-0.193
13,CGCGGTGA,-0.0858
14,GAAGCAAC,-0.0026
15,ACCCTTAT,-0.0484
16,CCCCCGGA,-0.164
17,AATCGCGC,0.0518
18,AAAATTCG,0.181
19,CGGAGACA,0.281
20,CCATACCC,-0.139
21,GGCACCGA,0.0976
22,CTGTGGGC,-0.192
23,CCATTCCA,-0.0949
24,AGGAGGGC,-0.276
25,CTGGGAGC,-0.127

row,Sequence,PBM E-score
1,AACGCGTC,0.0477
2,AAAACATC,0.0496
3,CAACAGAG,0.0298
4,GCGAAATA,0.206
5,ACCGCATC,0.157
6,CGCGATTC,0.0737
7,AGATCACC,0.0646
8,ACACTCGT,-0.0589
9,CTCATCTA,-0.0227
10,AGTACAGA,0.127
11,TACCGGGA,0.207
12,AACATTAA,0.125
13,CGAATCAG,-0.0793
14,AGCTCACC,-0.0976
15,AGTCCGAG,0.268
16,ACAACCAT,0.128
17,AGCACTGG,-0.267
18,CCACTGAG,-0.266
19,GATCCAAA,0.196
20,TACTACTA,0.137
21,AATGTCCA,-0.132
22,CAAATTCA,-0.134
23,AACAAGCT,0.0739
24,GTTTGGGA,-0.00334
25,ACACCACT,0.0196

row,Sequence,PBM E-score
1,CCACCCGC,-0.138
2,GTAATTGA,0.168
3,GATTTACC,0.0984
4,GACCGGGA,0.0108
5,ATGGCAAT,-0.0949
6,CTAGCTAC,-0.237
7,AAGAGGAG,-0.115
8,ATACCTAG,-0.0735
9,AGTGTGTA,-0.101
10,GAGTTATC,0.182
11,CACCTTTA,-0.0458
12,GATTCAAA,0.052
13,CATCCCAC,-0.2
14,GATAGTGC,-0.105
15,ACTAATGG,-0.0197
16,ACGCCCCG,-0.006
17,CCTGACAC,-0.0732
18,CGGCGCCA,0.162
19,CAGAGCCG,0.238
20,AATCATGA,0.188
21,CCTGCTCC,0.00079
22,AGTTTGGC,-0.0507
23,TCAAGACA,-0.0118
24,CCAAGTCA,-0.153
25,AATAAAAG,0.0204

# 7 entries from above, reformatted.
row | Sequence | PBM E-score
16 | ACGCCCCG | -0.006
17 | CCTGACAC | -0.0732
18 | CGGCGCCA | 0.162
19 | CAGAGCCG | 0.238
20 | AATCATGA | 0.188
21 | CCTGCTCC | 0.00079
22 | AGTTTGGC | -0.0507

# Following part

row,Sequence,PBM E-score
1,AAAAACTT,0.172
2,CAGATTCG,0.0724
3,ACCAGATG,-0.251
4,CCAGACCC,-0.262
5,CCGAGGGA,0.0207
6,CGGGCCCC,0.031
7,AGGCGCCA,-0.181
8,GGTGACAC,-0.104
9,GGGACTCA,-0.228
10,TCGCACGA,-0.0395
11,GCTTCATA,-0.0263
12,CACACGGG,-0.117
13,AAGCAAAA,0.121
14,CTGTGGGA,-0.307
15,GCGATAGC,-0.0771
16,TAGAGAAA,0.122
17,CTAATTTC,0.202
18,CAAATACA,-0.0425
19,CAAACAGG,-0.143
20,CAGCGGGC,-0.0514
21,CCGCCCCC,-0.145
22,AATACAAG,0.0699
23,CAGCTCCA,-0.224
24,CTCGAAAC,0.175
25,GGGTTAAA,-0.0167

# Exported tab-delimited: part of the list above.
row	Sequence	PBM E-score
16	TAGAGAAA	0.122
18	CAAATACA	-0.0425

# (list continues)

row,Sequence,PBM E-score
1,AATGGAGC,-0.052
2,GGTCCGAC,0.153
3,CAGTTTCG,0.0474
4,CTTCTGTA,0.09
5,GCGACCGA,0.217
6,AACTTCCC,-0.15
7,ATGCTTGG,-0.131
8,CTACGAGA,-0.111
9,ATCGATCC,-0.119
10,CATGCGCG,-0.0219
11,AAGAAGTC,-0.0114
12,ATTTTTCA,0.169
13,AGAAGAGA,-0.0452
14,CCTCCCCG,-0.0343
15,TAACCGCA,0.127
16,CGATCAAA,0.0288
17,AGGAATTA,0.0841
18,ATTTCCTC,0.127
19,CATAGCGG,-0.132
20,AACTCGTA,0.0532
21,CGCTCTGC,0.016
22,AAGTTTGC,-0.0135
23,CGAGAAAG,0.105
24,CGAGCAGA,-0.0763
25,AACGCACA,-0.00084

row,Sequence,PBM E-score
1,ATCATGGA,-0.209
2,ATTTTCAG,0.157
3,TCGACAAA,0.147
4,GCTAGCCC,-0.292
5,ATCCTCTA,-0.0816
6,GGTAAGAA,-0.112
7,AGTAATGC,-0.00589
8,AACCGAGA,0.229
9,CACGCGGG,-0.0142
10,CGAGGCTC,-0.0916
11,GTAAACCA,-0.0788
12,CTAGCGGA,-0.103
13,ATTCGTAG,0.107
14,CTCCCCAC,-0.225
15,ACCTTACG,0.00591
16,GGATATTA,0.132
17,AGATGCAT,-0.0415
18,CAACTCAG,-0.0621
19,ATAGCTTA,0.153
20,AACGTCGG,-0.0362
21,CATGATGC,-0.0869
22,ATGGCTAG,-0.166
23,AGGAGACC,-0.273
24,GCAGCCCC,-0.173
25,ATGGCGCG,-0.0179

row,Sequence,PBM E-score
1,CGTGTGCC,-0.131
2,CCGTGCGC,0.145
3,ATCCAGAG,0.0238
4,GTGCAAAA,-0.00401
5,AGTCAGCG,-0.269
6,GAACCACC,-0.0106
7,TCCCCTAA,-0.202
8,TCGCAAGA,-0.0555
9,CTTGACGC,-0.0637
10,GTCGGAGA,0.158
11,ACTGCTGC,-0.138
12,CACCCAAA,-0.0529
13,CTGCGTAA,-0.0554
14,ACCAATAA,0.0431
15,CTTTTGCA,0.109
16,CCATAGGA,-0.197
17,TCCAGGAA,-0.0611
18,AAATTCAG,0.00208
19,AGCCGAAT,0.392
20,ACGTATTC,0.109
21,AACGCTGG,-0.166
22,CCTTATCG,0.121
23,GCTTCGCC,-0.208
24,AGGTACGC,-0.0351
25,ACCAGCTG,-0.116

row,Sequence,PBM E-score
1,ACTTGCGG,-0.042
2,TACGTACA,0.0341
3,AAGTCAGG,-0.0442
4,CATATCAA,0.21
5,GGCCCCAA,-0.222
6,CGCTAGGC,-0.193
7,AAGATAGA,-0.0904
8,CAGGTATA,-0.163
9,ACGCATAC,0.0179
10,ACCGTCGC,0.103
11,ACATGACT,-0.263
12,CGCAGTCA,-0.264
13,ACCTGTGG,-0.255
14,CTATTGCA,0.134
15,ACGGCTGC,0.0869
16,CTCAGGAG,-0.147
17,CAGACTAG,-0.219
18,CACCAGTG,-0.127
19,CCATCGAA,-0.0913

# Quoted at random: 4 entries already listed.
row,Sequence,PBM E-score
16,CTCAGGAG,-0.147
20,CCATACCC,-0.139
9,AGTGTGTA,-0.101
1,GATATACC,0.167
